pEC50, pKi: −log10 of the molar value.
Experiments:
[1] = target: T1, G-protein coupled receptor 35 (Homo sapiens, UniProt Q9HC97); assay: biochemical; assay type: cell-based, CHO
[2] = target: T1, G-protein coupled receptor 35; assay: Agonist activity at human GPR35 by Ca+2 release assay
[3] = target: T1, G-protein coupled receptor 35; assay: Agonist activity at C-terminal beta-galactosidase tagged human recombinant GPR35 expressed in CHO cells after 90 mins by beta-arrestin recruitment assay; assay type: cell-based

Sequences of proteins named here, by UniProt entry; tags and fusion partners are left off. A change or cut given only in a name is not applied to a line headed by its entry.
UniProt Q9HC97: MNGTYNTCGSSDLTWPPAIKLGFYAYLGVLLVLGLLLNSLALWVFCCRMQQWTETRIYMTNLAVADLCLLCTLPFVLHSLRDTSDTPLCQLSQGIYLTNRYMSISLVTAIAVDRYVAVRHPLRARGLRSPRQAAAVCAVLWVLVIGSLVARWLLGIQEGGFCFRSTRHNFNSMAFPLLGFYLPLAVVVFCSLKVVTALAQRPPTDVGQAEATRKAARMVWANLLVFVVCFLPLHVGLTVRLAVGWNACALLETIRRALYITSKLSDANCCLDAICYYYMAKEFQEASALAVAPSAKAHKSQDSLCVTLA

Question: Which results are given for NS(=O)(=O)c1cc(C(=O)O)c(NCc2ccco2)cc1Cl [FUROSEMIDE]?
Answer: pKi [1]: 5.49; pEC50 [2]: 5.21; pEC50 [3]: 4.95

Reference: ChEMBL document CHEMBL2424638, “6-Bromo-8-(4-[(3)H]methoxybenzamido)-4-oxo-4H-chromene-2-carboxylic Acid: a powerful tool for studying orphan G protein-coupled receptor GPR35” (J Med Chem, 2013)
